At least one compound was matched to its structure with a doubt left.
Assays:
neointimal hyperplasia = assay: Porcine studies with rapamycin-coated stents, neointimal area; assay type: in vivo; conditions: porcine and rabbit models; nonerodible polymeric stent coating, 35-430 ug/15-18 mm coronary stent; maximal at about 28 to 30 days
[1] = Drug concentration in liquid formulations by liquid chromatography / HPLC; assay type: physicochemical; conditions: H2O 25%, PEG 200 75%
Excerpt: A series of liquid formulations were developed for the local or regional delivery of water insoluble compounds such as sirolimus and its analogs, including CCI-779, ABT-578 and everolimus, through weeping balloons and catheter injection needles. Sirolimus and its analogs are rapamycins. These liquid formulations increase the apparent solubility of the pharmacologically active but water insoluble compounds by two to four orders of magnitude as compared to the solubility limits of the compounds in water. These liquid formulations rely on the use of a very small amount of organic solvents such as Ethanol and a larger amount of safe amphiphilic (of or relating to a molecule having a polar, water soluble group attached to a non-polar, water insoluble […]) excipients such as polyethylene glycol (PEG 200, PEG 400) and vitamin E TPGS to enhance the solubility of the compounds. These liquid formulations of highly water insoluble compounds are stable and readily flowable at room temperature. Certain excipients, such as Vitamin E TPGS and BHT may be utilized to enhance the storage stability of sirolimus compounds through their anti-oxidation properties.
Table 7, shown below, summarizes the concentrations of the excipient, the co-solvents and the drug for four different liquid formulations. […]

For `CO[C@H]1C[C@@H]2CC[C@@H](C)[C@@](O)(O2)C(=O)C(=O)N2CCCC[C@H]2C(=O)O[C@H]([C@H](C)C[C@@H]2CC[C@@H](O)[C@H](OC)C2)CC(=O)[C@H](C)/C=C(\C)[C@@H](O)[C@@H](OC)C(=O)[C@H](C)C[C@H](C)/C=C/C=C/C=C/1C` [Rapamycin, rapamycin], the “peak reduction in neointimal hyperplasia” value (neointimal hyperplasia) was “fifty to fifty-five”, the Sirolimus conc. ([1]; fourth formulation of Table 7 (unnamed, second column): EtOH 2.0%) was 4 mg/mL and the Sirolimus conc. ([1]; third formulation of Table 7 (unnamed, first column): EtOH 2.0%) was 2.0 mg/mL.
